Source: patent US9938322B2 (priority 2013, dated 2018)
Strings that start with PEPTIDE1 are HELM notation: dots part the residues, brackets hold end groups and non-standard residues. Where no end group is shown, it is not given here. [ ]: non-standard residue; d: D form. Cha = N[C@@H](CC1CCCCC1)C(=O)O; Tle = CC(C)(C)[C@H](N)C(=O)O; dDab = NCC[C@@H](N)C(=O)O; hSer = N[C@@H](CCO)C(=O)O; Orn = NCCC[C@H](N)C(=O)O; Dab = NCC[C@H](N)C(=O)O; Dap = NC[C@H](N)C(=O)O

Assay: general procedure: Fmoc solid-phase peptide synthesis; preloaded Fmoc-amino acid 2-chlorotrityl resins
Details: whole synthesis, scale of the general procedure approximately 80 mg resin per vessel

In order of falling “purity (crude or final not stated)” value:
1. IS[Cha][Dab][Orn][Dab][Dab]W[Dab][Tle]AS[dP]P  95%
2. LTY[Dab][Orn][dDab][Dab]W[Dab][Tle]NS[dP]P  95%
3. PEPTIDE1{I.T.Y.[Dab].[Orn].[D-Dab].[Dab].W.[Dab].[tBuGly].A.S.[dP].P}$PEPTIDE1,PEPTIDE1,1:R1-14:R2$$$V2.0  95%
4. PEPTIDE1{I.[Abu].Y.[Dab].[Orn].[D-Dab].[Dab].W.[Dab].[tBuGly].A.S.[dP].P}$PEPTIDE1,PEPTIDE1,1:R1-14:R2$$$V2.0  95%
5. PEPTIDE1{I.A.Y.[Dab].[Dab].[DDab].[Dab].W.[Dab].[tBuGly].T.T.[dP].P}$PEPTIDE1,PEPTIDE1,1:R1-14:R2$$$V2.0  94%
6. PEPTIDE1{I.S.Y.[Dab].K.[D-Dab].[Dab].W.[Dab].[tBuGly].A.S.[dP].P}$PEPTIDE1,PEPTIDE1,1:R1-14:R2$$$V2.0  93%
7. PEPTIDE1{I.S.[tBuGly].[Dab].[Orn].[DDab].[Dab].W.[Dab].[Chg].A.S.[dP].P}$PEPTIDE1,PEPTIDE1,1:R1-14:R2$$$V2.0  93%
8. Leu-Ser-Tyr-Dab-Orn-^DDab-Dab-Trp-Dab-Tyr-Ala-Ser-^DPro-Pro((3S)OH)  92%
9. PEPTIDE1{I.S.Y.[Dab].[Orn].[DDab].[Dab].W.[Dab].W.A.S.[dP].P}$PEPTIDE1,PEPTIDE1,1:R1-14:R2$$$V2.0  92%
10. PEPTIDE1{I.S.[Phe(4NH2)].[Dab].[Orn].[D-Dab].[Dab].W.[Dab].[tBuGly].A.S.[dP].P}$PEPTIDE1,PEPTIDE1,1:R1-14:R2$$$V2.0  92%
11. PEPTIDE1{F.[Dap].Y.[Dab].[Orn].[DDab].[Dab].W.[Dab].[tBuGly].A.S.[dP].P}$PEPTIDE1,PEPTIDE1,1:R1-14:R2$$$V2.0  91%
12. PEPTIDE1{I.A.[Cha].[Dab].[Orn].[DDab].[Dab].W.[Dab].[tBuGly].S.S.[dP].P}$PEPTIDE1,PEPTIDE1,1:R1-14:R2$$$V2.0  91%
13. LSY[Dab][Orn][dDab][Dab]W[Dab]Y(Me)AS[dP]P  90%
14. Leu-Ala-Cha-Dab-Orn-^DDab-Dab-Trp-Dab-tBuGly-Alb-Ser-^DPro-Pro((3S)OH)  90%
15. Ala(CF3)-Ser-Tyr-Dab-Orn-^DDab-Dab-Trp-Dab-tBuGly-Ala-Ser-^DPro-Pro  89%
16. PEPTIDE1{I.A.Y.[Dab].[Orn].[D-Dab].[Dab].W.[Dab].[tBuGly].A.S.[dP].P}$PEPTIDE1,PEPTIDE1,1:R1-14:R2$$$V2.0  89%
17. Ala(4ClPhUr)-Ala-Cha-Dab-Orn-^DDab-Dab-Trp-Dab-tBuGly-Ala-Ser-^DPro-Pro  88%
18. PEPTIDE1{I.S.Y.[Dab].[Orn].[D-Dab].[Dab].W.[Dab].I.A.S.[dP].P}$PEPTIDE1,PEPTIDE1,1:R1-14:R2$$$V2.0  88%
19. PEPTIDE1{I.S.Y.[Dab].[Orn].[DDab].[Dab].W.[Dab].[tBuGly].A.S.[dP].P}$PEPTIDE1,PEPTIDE1,1:R1-14:R2$$$V2.0  88%
20. Ala(2ClPhUr)-Ala-Cha-Dab-Orn-^DDab-Dab-Trp-Dab-tBuGly-Ala-Ser-^DPro-Pro  87%
21. PEPTIDE1{I.N.Y.[Dab].[Orn].[D-Dab].[Dab].W.[Dab].[tBuGly].A.S.[dP].P}$PEPTIDE1,PEPTIDE1,1:R1-14:R2$$$V2.0  86%
22. Leu-Ala(3PyrMeUr)-Cha-Dab-Orn-^DDab-Dab-Trp-Dab-tBuGly-Ala-Ser-^DPro-Pro  82%
23. Leu-Ala(2ClPhUr)-Cha-Dab-Orn-^DDab-Dab-Trp-Dab-tBuGly-Ala-Ser-^DPro-Pro  81%
24. LSY[Dab]K[Dab][Dab]W[Dab][Tle]AS[dP]P  80%
25. LSY[Dab][Orn][dDab][Dab]W[hSer][Tle]A[Dap][dP]P  72%
